Laboratory results published in paper PMC6385987.
Results are given in words; binding and its absence hold for the method and conditions named. In cells and extracts the contact can be indirect. Some results given as binding are weak or reduced against the parent protein; the word gives no strength. Where a sequence is shown, tags or fusion partners need not be part of it.

Biological target: T1, CG2941-Flag (Drosophila melanogaster) (UniProt Q9W4N9)
T1 sequence: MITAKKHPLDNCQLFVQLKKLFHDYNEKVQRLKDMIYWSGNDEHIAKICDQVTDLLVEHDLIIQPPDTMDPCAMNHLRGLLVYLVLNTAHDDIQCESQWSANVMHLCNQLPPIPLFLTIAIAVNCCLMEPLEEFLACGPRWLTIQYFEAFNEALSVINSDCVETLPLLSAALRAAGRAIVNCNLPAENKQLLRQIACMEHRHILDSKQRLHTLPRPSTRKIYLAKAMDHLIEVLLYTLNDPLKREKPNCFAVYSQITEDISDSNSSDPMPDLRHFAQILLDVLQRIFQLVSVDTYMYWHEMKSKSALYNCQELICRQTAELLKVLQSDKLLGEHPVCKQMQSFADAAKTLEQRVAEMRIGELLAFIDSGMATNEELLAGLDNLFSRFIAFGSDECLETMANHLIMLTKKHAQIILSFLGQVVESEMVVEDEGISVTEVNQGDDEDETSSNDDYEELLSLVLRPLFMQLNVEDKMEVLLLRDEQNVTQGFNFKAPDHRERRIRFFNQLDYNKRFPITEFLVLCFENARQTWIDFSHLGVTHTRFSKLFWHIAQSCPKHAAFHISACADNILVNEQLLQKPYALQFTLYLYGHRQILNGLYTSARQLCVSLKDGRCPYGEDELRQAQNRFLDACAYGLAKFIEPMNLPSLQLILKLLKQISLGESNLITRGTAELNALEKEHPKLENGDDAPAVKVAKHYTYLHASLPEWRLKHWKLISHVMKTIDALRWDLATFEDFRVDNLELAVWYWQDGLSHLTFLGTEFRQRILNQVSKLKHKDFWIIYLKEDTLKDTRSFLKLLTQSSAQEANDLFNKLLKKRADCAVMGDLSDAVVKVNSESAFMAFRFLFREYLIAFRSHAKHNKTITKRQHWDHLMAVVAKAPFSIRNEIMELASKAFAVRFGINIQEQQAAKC
Experiment: co-IP; total lysate of S2 cells transfected with CG2941-Flag (mock transfected cells in parallel) on anti-FLAG agarose beads, 4C; western blot with anti-SMN

B1: endogenous SMN of Drosophila S2 cells (protein, UniProt Q9VV74 1-226)
chain: MSDETNAAVWDDSLLVKTYDESVGLAREALARRLADSTNKREEENAAAAEEEAGEISATGGATSPEPVSFKVGDYARATYVDGVDYEGAVVSINEEKGTCVLRYLGYENEQEVLLVDLLPSWGKRVRREQFLIAKKDEDEQLSRPKASAGSHSKTPKSSRRSRISGGLVMPPMPPVPPMIVGQGDGAEQDFVAMLTAWYMSGYYTGLYQGKKEASTTSGKKKTPKK
Question: With B1 as the binder, how does the binding read?
Answer: The binding was “binds”.
